Data from the supplement of paper PMC4604168 (melanoma cell lines).
Some of the results follow. Single values are uncertain, as repeats are few or missing.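 Cells were imaged in 1,536-well plates, and nuclei stained with an antibody against cleaved PARP were counted against all DNA-stained nuclei to give the apoptosis fraction. Screening doses were chosen to leave most cells alive, and resting and induced cleaved-PARP levels differ strongly between cell lines.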

test system: C32; test: cleaved PARP positive nuclei fraction relative to DMSO control; melanoma cells; higher = more apoptosis; conditions: library dose: low library concentration; 72 h

| SMILES | cleaved PARP positive nuclei fraction [%] |
| --- | --- |
| CO[C@H]1C[C@@H]2CC[C@@H](C)[C@@](O)(O2)C(=O)C(=O)N2CCCC[C@H]2C(=O)O[C@H]([C@H](C)C[C@@H]2CC[C@@H](OCCO)[C@H](OC)C2)CC(=O)[C@H](C)/C=C(\C)[C@@H](O)[C@@H](OC)C(=O)[C@H](C)C[C@H](C)/C=C/C=C/C=C/1C [everolimus] + Clc1ccc(Nc2nnc(Cc3ccncc3)c3ccccc23)cc1 [vatalanib] (first compound 0.02 µM, partner dose 2 µM) | 90.9 |
| CO[C@H]1C[C@@H]2CC[C@@H](C)[C@@](O)(O2)C(=O)C(=O)N2CCCC[C@H]2C(=O)O[C@H]([C@H](C)C[C@@H]2CC[C@@H](OCCO)[C@H](OC)C2)CC(=O)[C@H](C)/C=C(\C)[C@@H](O)[C@@H](OC)C(=O)[C@H](C)C[C@H](C)/C=C/C=C/C=C/1C [everolimus] + C#Cc1cccc(Nc2ncnc3cc(OCCOC)c(OCCOC)cc23)c1 [erlotinib] (first compound 0.02 µM, partner dose 0.8 µM) | 84.2 |
| CS(=O)(=O)CCNCc1ccc(-c2ccc3ncnc(Nc4ccc(OCc5cccc(F)c5)c(Cl)c4)c3c2)o1 [lapatinib] + OCc1c[nH]c2ccccc12 [Indole-3-carbinol] (first compound 0.8 µM, partner dose 0.8 µM) | 73.8 |
| C[C@@H](Oc1cc(-c2cnn(C3CCNCC3)c2)cnc1N)c1c(Cl)ccc(F)c1Cl [Crizotinib] + Nc1ccn([C@@H]2O[C@H](CO)[C@@H](O)C2(F)F)c(=O)n1 [gemcitabine] (first compound 0.2 µM, partner dose 0.0004 µM) | 160 |
| O=C(O)[C@@H]1[O][Sb](=[O])([O][Sb]2(=[O])[O][C@H]([C@H](O)CO)[C@H](O)[C@H](C(=O)O)[O]2)[O][C@H]([C@H](O)CO)[C@@H]1O (some centres not stated) [stibogluconate] + COc1ccc(Cl)c(Nc2nc3ccccc3nc2NS(=O)(=O)c2cccc(NC(=O)C(C)(C)N)c2)c1 [XL147] (first compound 2 µM, partner dose 0.8 µM) | 87.9 |
| Cc1cc(Nc2cc(N3CCN(C)CC3)nc(/C=C/c3ccccc3)n2)n[nH]1 + C#Cc1cccc(Nc2ncnc3cc(OCCOC)c(OCCOC)cc23)c1 [erlotinib] (first compound 0.04 µM, partner dose 0.8 µM) | 90.4 |
| Nc1ccn([C@@H]2O[C@H](CO)[C@@H](O)C2(F)F)c(=O)n1 [gemcitabine] + COc1ccc(Cl)c(Nc2nc3ccccc3nc2NS(=O)(=O)c2cccc(NC(=O)C(C)(C)N)c2)c1 [XL147] (first compound 0.0004 µM, partner dose 0.8 µM) | 80.4 |
| Cc1cc(Nc2cc(N3CCN(C)CC3)nc(/C=C/c3ccccc3)n2)n[nH]1 + CNC(=O)c1cc(Oc2ccc(NC(=O)Nc3ccc(Cl)c(C(F)(F)F)c3)cc2)ccn1 [sorafenib] (first compound 0.04 µM, partner dose 0.4 µM) | 21000 |
| O=C(O)c1ccc2c(c1)nc(Nc1cccc(Cl)c1)c1ccncc12 + Nc1nc(F)nc2c1ncn2[C@@H]1O[C@H](CO)[C@@H](O)[C@@H]1O [fludarabine] (first compound 0.4 µM, partner dose 0.2 µM) | 72.7 |
| O=C(O)c1ccc2c(c1)nc(Nc1cccc(Cl)c1)c1ccncc12 + Nc1cccc2c1CN(C1CCC(=O)NC1=O)C2=O [lenalidomide] (first compound 0.4 µM, partner dose 1 µM) | 81.4 |
| Nc1ncn([C@H]2C[C@H](O)[C@@H](CO)O2)c(=O)n1 [decitabine] + OCc1c[nH]c2ccccc12 [Indole-3-carbinol] (first compound 0.1 µM, partner dose 0.8 µM) | 69.9 |
| CC(C)C[C@H](NC(=O)[C@H](Cc1ccccc1)NC(=O)c1cnccn1)B(O)O [Bortezomib] + Cn1c(Nc2ccc(C(F)(F)F)cc2)nc2cc(Oc3ccnc(-c4ncc(C(F)(F)F)[nH]4)c3)ccc21 [CHIR265] (first compound 0.001 µM, partner dose 0.08 µM) | 267 |
| Cn1c(=O)n(-c2ccc(C(C)(C)C#N)cc2)c2c3cc(-c4cnc5ccccc5c4)ccc3ncc21 + C[C@]1(c2nc3c(C(N)=O)cccc3[nH]2)CCCN1 [Veliparib] (first compound 0.004 µM, partner dose 1.4 µM) | 179 |
| CS(=O)(=O)CCNCc1ccc(-c2ccc3ncnc(Nc4ccc(OCc5cccc(F)c5)c(Cl)c4)c3c2)o1 [lapatinib] + COCC[n+]1c2c(n(Cc3cnccn3)c1C)C(=O)c1ccccc1C2=O [YM155] (first compound 0.8 µM, partner dose 0.0004 µM) | 131 |
| CCCS(=O)(=O)Nc1ccc(F)c(C(=O)c2c[nH]c3ncc(Cl)cc23)c1F + Nc1nc(F)nc2c1ncn2[C@@H]1O[C@H](CO)[C@@H](O)[C@@H]1O [fludarabine] (first compound 0.08 µM, partner dose 0.2 µM) | 85 |
| Cc1cc(Nc2cc(N3CCN(C)CC3)nc(/C=C/c3ccccc3)n2)n[nH]1 + CO[C@H]1C[C@@H]2CC[C@@H](C)[C@@](O)(O2)C(=O)C(=O)N2CCCC[C@H]2C(=O)O[C@H]([C@H](C)C[C@@H]2CC[C@@H](OCCO)[C@H](OC)C2)CC(=O)[C@H](C)/C=C(\C)[C@@H](O)[C@@H](OC)C(=O)[C@H](C)C[C@H](C)/C=C/C=C/C=C/1C [everolimus] (first compound 0.04 µM, partner dose 0.02 µM) | 85.6 |
| CCCS(=O)(=O)Nc1ccc(F)c(C(=O)c2c[nH]c3ncc(Cl)cc23)c1F + Nc1ncn([C@H]2C[C@H](O)[C@@H](CO)O2)c(=O)n1 [decitabine] (first compound 0.08 µM, partner dose 0.1 µM) | 76.1 |

Part of the list above, as labelled records:
O=C(O)c1ccc2c(c1)nc(Nc1cccc(Cl)c1)c1ccncc12 + Nc1nc(F)nc2c1ncn2[C@@H]1O[C@H](CO)[C@@H](O)[C@@H]1O [fludarabine] (first compound 0.4 µM, partner dose 0.2 µM)
  cleaved PARP positive nuclei fraction [%]: 72.7
Nc1ncn([C@H]2C[C@H](O)[C@@H](CO)O2)c(=O)n1 [decitabine] + OCc1c[nH]c2ccccc12 [Indole-3-carbinol] (first compound 0.1 µM, partner dose 0.8 µM)
  cleaved PARP positive nuclei fraction [%]: 69.9
